Among the data in US20250179186A1 (REGENTS OF THE UNIVERSITY OF MINNESOTA, published 2025) are binding values, retold here.

Chains of the proteins cited; added tags and fusions are not shown. Residues count along the entry.
UniProt Q5ZPR3, residues 29-534: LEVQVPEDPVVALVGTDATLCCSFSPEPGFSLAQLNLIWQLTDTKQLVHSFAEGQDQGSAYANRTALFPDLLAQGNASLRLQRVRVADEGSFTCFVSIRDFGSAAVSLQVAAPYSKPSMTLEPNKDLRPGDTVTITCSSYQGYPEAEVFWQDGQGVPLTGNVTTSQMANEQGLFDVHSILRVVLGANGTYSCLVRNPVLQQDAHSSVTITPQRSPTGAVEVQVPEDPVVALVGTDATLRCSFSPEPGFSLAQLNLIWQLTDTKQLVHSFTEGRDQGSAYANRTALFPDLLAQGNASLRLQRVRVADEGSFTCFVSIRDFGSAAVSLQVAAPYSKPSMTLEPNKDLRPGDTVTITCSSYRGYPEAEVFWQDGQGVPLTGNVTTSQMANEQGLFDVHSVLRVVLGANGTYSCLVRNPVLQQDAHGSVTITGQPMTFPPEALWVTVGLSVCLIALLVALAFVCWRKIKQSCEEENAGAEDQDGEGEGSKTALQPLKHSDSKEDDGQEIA

Assay [1] has as its target human B7-H3 expressed by Mile Sven 1 cells stably transfected to express human B7-H3 (MS1-B7-H3) (human) (UniProt Q5ZPR3). Description: clone sequenced from the yeast-display population selected by FACS on MS1-B7-H3 cell lysate. In general terms: Flow cytometry measures light scatter and fluorescence of single cells or particles in a stream.
Assay [2] shares this target. Description: flow cytometry on MS1-B7-H3 cells.
Assay [3] has the same target. Description: clone sequenced from the yeast-display population selected by FACS on MS1-B7-H3 cell lysate (yeast-displayed form, not the purified His6 protein).

Results are given in words; binding and its absence hold for the method and conditions named. Some binding calls cover weakened binding; strength is not graded here.

B1: Gp2 1.4.1 (designed binder)
chain: KFWATVQHVYSDFGFEAPVYAATLDEALQLAEVQYANSIFMVTRVRP
For the molecule B1, the binding result in assay [1] is given as “binds”.

B2: Gp2 1.4.2 (designed binder)
chain: KFWATVQHVYSDFGFEAPVYAATLDEALQLAEVQYANSIFMVARVRP
On to B2, for which the binding result in assay [1] is listed as “binds”.

B3: Gp2 1.4.3 (designed binder)
chain: KFWATVQHVYSDFGFEVPVYAATLDEALQLAEVRYANSIFMVTRVRPHHHHHH
notes: Purified from E. coli (pET-24b, NheI/BamHI cloning)
Take B3: the binding entry in assay [2] and in assay [3] was “binds” throughout.

B4: Gp2 1.4.4 (designed binder)
chain: KFWATVQHVYSDFGFEAPVYAATLDEALQLAEVQYANSIFTVTRVRPHHHHHH
notes: as for B3
As to B4, the binding result in assay [2] and in assay [3] was “binds” each time.
